# Hit rate of the full screen: of about 330,000 compounds, about 7,700 (2.3%) were called active. Inconclusive results, whose numbers are uncertain, are shown with a selection of clear calls. Calls come from the whole dose curve; as a rule, active = well fitted inhibition curve with a large enough effect; inconclusive = small, poorly fitted or top-dose-only effect, or effect the other way; inactive = flat fitted curve, though single readings scatter. Potencies beside an inconclusive call are fits to weak or partial responses and may not hold up.
# Experiment: qHTS screen for small molecules that inhibit ELG1-dependent DNA repair in human embryonic kidney (HEK293T) cells expressing luciferase-tagged ELG1; note: nearly all actives have a fitted effect of over 55% in size
# Settings: HEK293T ELG1-luciferase reporter, luminescence, 16 h, DNA damage induced by 5-fluorouridine; series mostly up to 46.1 µM
# From the text: NIH Molecular Libraries Probe Production Network [MLPCN] NIH Chemical Genomics Center [NCGC] MLPCN Grant: 1 R03 MH092164-01 Assay Provider: Kyungjae Myung, NHGRI, NIH Keywords: MLPCN, qHTS, NCGC, genotoxicity, cancer Assay Overview: Cancer cells divide rapidly compared to normal cells in the body. During cell division, cancer cells need to duplicate their genome by DNA replication. The failure of genome duplication leads to cancer cells' death. Therefore, inhibitors of DNA replication could specifically kill cancer cells. Based on this concept, many chemotherapeutic agents were developed and have been used to treat cancer patients. However, there are a limited number of agents available in the clinical setting, and some of those that do exist have low efficacy and severe side effects. Therefore, if we can find the compounds that effectively block DNA replication either by directly damaging DNA or by inhibiting other cellular mechanisms, the options for cancer treatment will be broadened. With this in mind, we developed a quantitative high-throughput ELG1-luciferase reporter gene assay. Small molecules that specifically block ELG1 function in response to DNA damage can be identified by monitoring the suppression of luciferase activity. Since ELG1 defines a pathway for repairing DNA damage, agents blocking ELG1 function can be used to sensitize cancer cells to chemotherapeutic agents whose mechanism of action involves the induction of DNA damage.
# Assay Protocol Summary: For genotoxicity screening, 2,000 cells in 4 uL/well were dispensed into white, solid-bottom 1536-well plates using a solenoid-based dispenser. Following transfer of 1 uL 5-Fluorouridine and 23 nL compound or DMSO vehicle by a pin tool, the plates were incubated 16 hr at 37 °C and 5% CO2. 5 ul ONE-Glo (Promega) was then added to each plate and following a 30 min incubation at room temperature, luciferase activity was quantified on a ViewLux CCD-based plate reader.
# Potency is the fitted concentration of half-maximal effect.
row,Structure (SMILES),Potency
1,COC(=O)c1c(NC(=S)NN2CCOCC2)sc2c1CCCC2,inactive
2,CCn1cc(C(=O)NCCC(C)C)c(=O)c2cc(F)c(N3CCN(C(=O)c4ccco4)CC3)cc21,"inconclusive: 4.11 µM [inhibitor, partial curve, poor fit]"
3,O=C(c1c(F)cccc1F)N(Cc1cccs1)C1CCCC1,"inconclusive: 25.9 µM [inhibitor, partial curve, poor fit]"
4,CCOC(=O)c1ccccc1NC(=O)CSc1nnc(COc2ccccc2)n1CC,"inconclusive: 29.1 µM [inhibitor, single point]"
5,N#Cc1c(NC(=O)CCCC(=O)O)sc2c1CCCCC2,"inconclusive: 1.16 µM [activator, full curve]"
6,O=C(Nc1cccc(C(F)(F)F)c1)Nc1ccc(N2CCCC2)c(S(=O)(=O)Nc2ccccc2Cl)c1,"inconclusive: 5.8 µM [activator, partial curve]"
7,O=C1NCCCc2c1oc1cc(Br)c(O)c(Br)c21,"inconclusive: 25.9 µM [inhibitor, partial curve, poor fit]"
8,O=C(CSc1nnc2scc(-c3ccccc3)n12)Nc1nsc(-c2ccccc2)n1,active: 9.2 µM
9,O=C(CN1CCN(C(c2ccccc2)c2ccccc2)CC1)N1N=CCC1c1ccccc1 (stereo unspecified),"inconclusive: 20.6 µM [inhibitor, partial curve]"
10,CCOC(=O)c1sc(NC(=O)CSc2nc3cccnc3n2C)nc1C,"inconclusive: 25.9 µM [inhibitor, partial curve, poor fit]"
11,Cc1ccc(CONC(=O)c2ccccc2)cc1,"inconclusive: 18.3 µM [activator, partial curve]"
12,CSc1c(-c2ccccn2)c(N)nn1C(=O)C1CCC1,inactive
13,COc1ccc(N2CCN(C(=O)CCc3nnc4ccc(N5CCCC5)nn34)CC2)cc1,"inconclusive: 20.6 µM [inhibitor, partial curve, poor fit]"
14,Cc1nc2ccccn2c1C(=O)N/N=C/c1ccc(CNC(=O)C(=O)Nc2ccccc2)o1,inactive
15,CCN1CCN(Cc2ccc(NC(=O)c3cc(NC(=O)c4cnn(-c5ccccc5)c4N)cc(OC)c3)cc2C(F)(F)F)CC1,inactive
16,COc1ccccc1/C=N/NC(=O)CCSc1ccccc1,inactive
17,O=C(Nc1ccccc1)Nc1ccc(F)cc1F,"inconclusive: 8.2 µM [activator, partial curve]"
18,COc1ccc(C)cc1-n1nnnc1SC/C(O)=C(\C#N)c1nc2ccccc2[nH]1,inactive
19,CCN(CC)C(=O)Cn1cc(S(=O)(=O)CC(=O)Nc2ccc3c(c2)OCCO3)c2ccccc21,"inconclusive: 16.4 µM [activator, partial curve]"
20,CC1CCN(c2c(NCc3ccc(C(=O)N(C)C4CCCCC4)cc3)c(=O)c2=O)CC1,"inconclusive: 0.73 µM [inhibitor, single point]"
21,CC1C(=O)N2CCCc3cc(S(=O)(=O)N4CCN(c5cccc(Cl)c5)CC4)cc1c32 (stereo unspecified),inactive
22,Cc1cc(Br)ccc1NC(=O)CCSc1ccccc1,"inconclusive: 3.26 µM [inhibitor, partial curve, poor fit]"
23,CCOc1ccc(NC(=O)CN2CCN(C3c4ccccc4-c4ccccc43)CC2)cc1,active: 13 µM

# For reference, 2 of the compounds above:
row,Structure (SMILES),Potency
11,Cc1ccc(CONC(=O)c2ccccc2)cc1,"inconclusive: 18.3 µM [activator, partial curve]"
12,CSc1c(-c2ccccn2)c(N)nn1C(=O)C1CCC1,inactive

# (cont.)

row,Structure (SMILES),Potency
1,CC(=O)N(C)c1ccc(NC(=O)N2CCOCC2)cc1,inactive
2,CCCCCN(C(=O)NC(=O)Nc1ccccc1C)S(C)(=O)=O,"inconclusive: 18.4 µM [inhibitor, partial curve, poor fit]"
3,Cc1c(/C=N/NC(=O)c2ccccc2O)c2ccccn2c1C(=O)c1ccc(F)cc1,active: 23.1 µM
4,CCC(c1nnc(SCC(=O)NC2CCCCC2)n1Cc1ccccc1)N(C)C (stereo unspecified),inactive
5,O=C(CCc1ccccc1)Nc1ccccc1F,"inconclusive: 9.2 µM [activator, partial curve]"
6,O=C(COc1cccnc1[N+](=O)[O-])Nc1cc(Cl)ccc1Cl,"inconclusive: 9.2 µM [activator, partial curve]"
7,Cc1c(/C=N/NC(=O)c2cc(C(C)(C)C)[nH]n2)c2ccccc2n1C,"inconclusive: 20.6 µM [inhibitor, partial curve]"
8,CCOC(=O)N1CCN(C(=O)c2ccccc2SCC(=O)NCC2CCCCC2)CC1,inactive
9,O=C(CSc1nnc(NC(=O)c2ccccc2F)s1)NCC1CCCO1 (stereo unspecified),"inconclusive: 14.6 µM [activator, partial curve]"
10,CCCc1cc(C(=O)Nc2cc(OC)ccc2OC)cs1,inactive
11,CC(=O)N(C)c1ccc(N=Nc2c(C)[nH]n(C(N)=S)c2=O)cc1,"inconclusive: 2.59 µM [activator, partial curve]"
12,Cc1cc(S(=O)(=O)N2CCCC2)ccc1OCC(=O)NCc1ccccn1,inactive
13,Cn1cccc1CC(=O)NNC(=S)Nc1ccccc1Cl,inactive
14,CNC(=O)NC(=O)COC(=O)c1ccccc1OCc1ccccc1,"inconclusive: 3.66 µM [inhibitor, partial curve, poor fit]"
15,O=C(O)c1ccccc1S(=O)(=O)Cc1ccccc1,"inconclusive: 8.2 µM [activator, partial curve, poor fit]"
16,COc1cc(C(=O)N2CCN(C)C(C)C2)ccc1OC1CCN(C(C)=O)CC1 (stereo unspecified),inactive
17,COc1cccc(/C=N/Nc2cc(Cl)nc(C)n2)c1O,"inconclusive: 8.2 µM [activator, partial curve]"
18,CCOCCCNC(=O)c1oc2ccc3c(c2c1C)C(O)CC(C)(C)O3 (stereo unspecified),inactive
19,O=C(CSc1nnc2ccccn12)N1CCc2ccccc21,"inconclusive: 16.4 µM [activator, partial curve]"
20,CC(=O)c1cccc(NC(=S)NCCc2ccc(F)cc2)c1,"inconclusive: 16.4 µM [inhibitor, partial curve, poor fit]"
21,COCCn1c(SCC(=O)c2c(-c3ccccc3)n(C)c3ccccc23)nnc1-c1ccncc1,"inconclusive: 25.9 µM [inhibitor, single point]"
22,COc1ccc(C/C(N)=N/OC(=O)C(c2ccccc2)c2ccccc2)cc1OC,inactive
23,Cc1ccc(N2CC(C)Cn3c2nc2c3c(=O)n(CC(=O)OCc3ccccc3)c(=O)n2C)cc1C (stereo unspecified),"inconclusive: 14.6 µM [inhibitor, partial curve]"
